Some of these results come from one statement about several compounds together.
System: Bemisia tabaci (Tobacco White Fly)
Test: Example B5: Bemisia tabaci, larvicide, contact/feeding (bean plants)
Format: in vivo
Conditions: 200 ppm; spray chamber; three weeks later

Row | Compound | activity (efficacy from number of emerged adults, treated vs non treated)
1 | CCOC(=O)OC1=C(c2c(C)cc(Cl)cc2C)C(=O)OC12CCN(OC)CC2 [P1.11] | over 80%
2 | CON1CCC2(CC1)OC(=O)C(c1c(C)cc(C)cc1C)=C2O [P2.3, 4-hydroxy-8-methoxy-3-(2,4,6-trimethyl-phenyl)-1-oxa-8-aza-spiro[4.5]dec-3-en-2-one] | over 80%

— patent US8574607B2, “Spiroheterocyclic thiofuran dione derivatives” (Syngenta Crop Protection, Inc., priority 2009, dated 2013)
